Assay [1] addresses Recombinant factor XI from Heamatologic Technologies, biotinylated (UniProt P03951). The assay is described as follows: on-bead peptide library screen (BL122): biotinylated FXI + streptavidin-alkaline phosphatase, BCIP/NBT colour, blue beads Edman sequenced.
Assay [2] has the same target. The assay is described as follows: on-bead peptide library screen (BL121): biotinylated FXI + streptavidin-alkaline phosphatase, BCIP/NBT colour, blue beads Edman sequenced.
For assay [3] the target is unchanged. Nature of the assay: on-bead peptide library screen (BL124): biotinylated FXI + streptavidin-alkaline phosphatase, BCIP/NBT colour, blue beads Edman sequenced.

The chains behind the UniProt entries cited, without tags or fusion partners. Residues count along the entry.
UniProt P03951, residues 19-625: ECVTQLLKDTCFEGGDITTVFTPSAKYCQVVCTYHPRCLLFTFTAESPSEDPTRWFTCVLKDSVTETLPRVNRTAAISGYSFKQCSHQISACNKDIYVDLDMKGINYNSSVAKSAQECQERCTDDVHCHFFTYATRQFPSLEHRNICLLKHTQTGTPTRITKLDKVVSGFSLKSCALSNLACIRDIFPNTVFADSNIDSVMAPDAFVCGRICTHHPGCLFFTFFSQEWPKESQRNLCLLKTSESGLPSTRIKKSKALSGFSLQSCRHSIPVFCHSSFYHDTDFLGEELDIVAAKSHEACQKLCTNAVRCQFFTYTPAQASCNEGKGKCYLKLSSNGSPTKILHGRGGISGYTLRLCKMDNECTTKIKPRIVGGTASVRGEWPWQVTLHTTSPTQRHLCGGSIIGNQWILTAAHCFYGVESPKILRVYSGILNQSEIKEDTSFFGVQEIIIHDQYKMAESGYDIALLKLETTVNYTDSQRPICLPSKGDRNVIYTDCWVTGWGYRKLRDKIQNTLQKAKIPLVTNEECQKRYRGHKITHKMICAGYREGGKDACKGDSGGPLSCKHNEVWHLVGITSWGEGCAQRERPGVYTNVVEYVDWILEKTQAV

Results are given in words; binding and its absence hold for the method and conditions named. Some results given as binding are weak or reduced against the parent protein; the word gives no strength.

Consider YKWIHHDDFPLV (C-terminus on Tentagel resin bead) [SEQ ID NO:17], for which the binding entry in assay [1] was “binds”.
Consider DVWDYVVFDDFPS (C-terminus on Tentagel resin bead) [SEQ ID NO:19], for which, in assay [1], the binding result was “binds”.
Consider DVWDYVVFDDFPS (C-terminus on Tentagel resin bead) [SEQ ID NO:04], for which the binding entry in assay [2] is “binds”.
For DQWDWEDYDEAW (C-terminus on Tentagel resin bead) [SEQ ID NO:38], the binding entry in assay [1] is given as “binds”.
Turning to FQARHTIGDFPA (C-terminus on Tentagel resin bead) [SEQ ID NO:27], the binding result in assay [1] is reported as “binds”.
As to YPKHIYADFPSTRL (C-terminus on Tentagel resin bead) [SEQ ID NO:40], in assay [3], the binding entry was “binds”.
As to IWESHKVIEDFP (C-terminus on Tentagel resin bead) [SEQ ID NO:29], the binding entry in assay [1] is “binds”.
On the same count and under the same terms, for QKDFHWRILPDF (C-terminus on Tentagel resin bead) [SEQ ID NO:31] the value was “binds”.
For the molecule KVKHRFNDFPVWGN (C-terminus on Tentagel resin bead) [SEQ ID NO:54], the binding result in assay [3] is on record as “binds”.
The same measure, in the same setting: for IFKKTYEDFPRFVY (C-terminus on Tentagel resin bead) [SEQ ID NO:52] the value was “binds”.
Regarding HTHAFPDFPPH (C-terminus on Tentagel resin bead) [SEQ ID NO:23], the binding result in assay [1] is “binds”.
In the case of HPFFRGYPDFPD (C-terminus on Tentagel resin bead) [SEQ ID NO:09], the binding entry in assay [2] was “binds”.
For YLKHAWPDFPKLQQ (C-terminus on Tentagel resin bead) [SEQ ID NO:42], in assay [3], the binding entry is “binds”.
Turning to HPWFDDFPHLFQ (C-terminus on Tentagel resin bead) [SEQ ID NO:16], the binding result in assay [2] is recorded as “binds”.
With RQLHPFHHFHG (C-terminus on Tentagel resin bead) [SEQ ID NO:35], the binding entry in assay [1] is “binds”.
In the case of LPSFRFPDFPATKT (C-terminus on Tentagel resin bead) [SEQ ID NO:49], the binding result in assay [3] was “binds”.
HDWLVRWPDFPS (C-terminus on Tentagel resin bead) [SEQ ID NO:11]: the binding entry in assay [2] was “binds”.
Regarding FDRKRVHPDFPH (C-terminus on Tentagel resin bead) [SEQ ID NO:18], in assay [1], the binding result is on record as “binds”.
On the same count and under the same terms, for KTILGDVDFDI (C-terminus on Tentagel resin bead) [SEQ ID NO:34] the value was “binds”; for LVKGFPDFPNHN (C-terminus on Tentagel resin bead) [SEQ ID NO:24], “binds”.
As for PQLRWHDFPDFGS (C-terminus on Tentagel resin bead) [SEQ ID NO:13], the binding result in assay [2] was “binds”.
For IPKNRFSDFPDAQG (C-terminus on Tentagel resin bead) [SEQ ID NO:48], in assay [3], the binding result is reported as “binds”.
HLYDFDLDNEY (C-terminus on Tentagel resin bead) [SEQ ID NO:33]: the binding entry in assay [1] is reported as “binds”.
LPKTRFLDFPHVSF (C-terminus on Tentagel resin bead) [SEQ ID NO:46]: in assay [3], the binding result is “binds”.
For YVRHRFEDFPTALP (C-terminus on Tentagel resin bead) [SEQ ID NO:43], the binding result in assay [3] was “binds”.
For the molecule QPAHRYPDFPRNNH (C-terminus on Tentagel resin bead) [SEQ ID NO:45], in assay [3], the binding entry is recorded as “binds”.
Take HPWHLVYPDFPS (C-terminus on Tentagel resin bead) [SEQ ID NO:10]: in assay [2], the binding result is “binds”.
With SRWPWSVFPDFPD (C-terminus on Tentagel resin bead) [SEQ ID NO:03], the binding result in assay [2] is given as “binds”.
As to VLHNKYDDFPRVKK (C-terminus on Tentagel resin bead) [SEQ ID NO:53], in assay [3], the binding entry is “binds”.
Consider RIKDFPSDSNTV (C-terminus on Tentagel resin bead) [SEQ ID NO:28], for which the binding entry in assay [1] is on record as “binds”.
Take KIVKFPHTFPDL (C-terminus on Tentagel resin bead) [SEQ ID NO:32]: the binding entry in assay [1] is listed as “binds”.
Turning to QAIFTRFPDFPN (C-terminus on Tentagel resin bead) [SEQ ID NO:21], in assay [1], the binding result is reported as “binds”.
For HHFPPFSHFPDLPQ (C-terminus on Tentagel resin bead) [SEQ ID NO:07], the binding result in assay [2] was “binds”.
For FFKKTYADFPTSQT (C-terminus on Tentagel resin bead) [SEQ ID NO:51], the binding entry in assay [3] was “binds”.
Turning to GPFPYAYEDFPE (C-terminus on Tentagel resin bead) [SEQ ID NO:25], the binding entry in assay [1] is “binds”.
FYLKTRYYDFPE (C-terminus on Tentagel resin bead) [SEQ ID NO:26]: the binding entry in assay [1] is recorded as “binds”.
On to QWFSVSRYQDFD (C-terminus on Tentagel resin bead) [SEQ ID NO:30], for which, in assay [1], the binding result is listed as “binds”.
Turning to RRLPLSRLPDFP (C-terminus on Tentagel resin bead) [SEQ ID NO:08], the binding result in assay [2] is recorded as “binds”.
In the case of SHFWRQWPDFSD (C-terminus on Tentagel resin bead) [SEQ ID NO:12], the binding result in assay [2] is on record as “binds”.
Consider EWFPDFPEGSDG (C-terminus on Tentagel resin bead) [SEQ ID NO:22], for which, in assay [1], the binding entry is on record as “binds”.
In the case of QRWVPYDDFPSLRS (C-terminus on Tentagel resin bead) [SEQ ID NO:05], the binding entry in assay [2] was “binds”.
Regarding FNWNNVDEYYDW (C-terminus on Tentagel resin bead) [SEQ ID NO:37], the binding entry in assay [1] is listed as “binds”.
With VDWQWSRFDDFPS (C-terminus on Tentagel resin bead) [SEQ ID NO:15], the binding result in assay [2] is on record as “binds”.
Turning to RHFHVFPDFPFVH (C-terminus on Tentagel resin bead) [SEQ ID NO:06], in assay [2], the binding entry is listed as “binds”.
As to LPPARYPDFPAAKK (C-terminus on Tentagel resin bead) [SEQ ID NO:47], the binding result in assay [3] is listed as “binds”.
Still for that read-out and setting: for RVLNRYPDFPTTNQ (C-terminus on Tentagel resin bead) [SEQ ID NO:50] the value was “binds”; for YPRHIYPDFPTDTT (C-terminus on Tentagel resin bead) [SEQ ID NO:41], “binds”; for FPWHKYEDFPSPRT (C-terminus on Tentagel resin bead) [SEQ ID NO:44], “binds”.
As for YDIYDDYEIWA (C-terminus on Tentagel resin bead) [SEQ ID NO:39], in assay [1], the binding entry was “binds”.
Still for that read-out and setting: for QQPIQRFPDFP (C-terminus on Tentagel resin bead) [SEQ ID NO:20] the value was “binds”; for RSWLRYGYGH (C-terminus on Tentagel resin bead) [SEQ ID NO:36], “binds”.
